Library screen at single concentrations

The values are deposited in ChEMBL (CHEMBL3988442, “University of Dundee, Small-Polar-MMV Screening Library” (2021)).

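Assay of Toxoplasma gondii numbers, read through their beta-galactosidase reporter with a colour substrate. Concentration: 50 µM. Higher reads as fewer parasites (inferred from which compounds were picked for retests). Of about 18,000 compounds tested this way, about 170 (0.94%) reached 50% or more in at least one test.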

Results are given as percent effect. The controls that fix the scale are not given in the record; negative values are as filed. The compounds are a random part of those screened.

compound,Percent Effect
Cc1ccc(C)c(NC(=O)N[C@@H]2CNCC[C@H]2O)c1,15.81
Cc1cccc(NC(=O)N(C)CCn2cccn2)n1,3.403
CCOC(=O)c1cccnc1C,-5.475
Cc1ccc(CN(C)C(=O)c2cnn(C)c2)o1,2.457
CCCNC(=O)c1ccc2snnc2c1,-4.923
CSc1ncc(C(=O)NCc2noc(C)n2)cn1,-12.9
NC(=O)NC1CCN(C(=O)Cc2ccc(Br)cc2)CC1,0.433
CNC(=O)Nc1ccc2c(c1)C(=O)N(C)C2=O,-6.127
COC(=O)C(C)SCCc1cccnc1 (centres unmarked),1.658
Fc1ccccc1CN1CCn2ccnc2C1,44.99
CN(C)[C@@H]1CN(C(=O)c2c(F)cccc2Cl)C[C@H]1CO,32.79
CCC(NC(=O)CCCN1CCCC1)c1ccnn1C (centres unmarked),-15.37
COCc1nn(CC(=O)c2cc(F)ccc2F)c(=O)o1,53.45
CCc1nnc2n1CC(NC(=O)Cc1ccsc1)CC2 (centres unmarked),6.29
Nc1ccc(CNc2ccc(C(F)(F)F)nn2)cn1,1.548
CCCN1CCC(CNc2ncccc2F)C1 (centres unmarked),-12.03
CC(C)n1ccnc1CN1CCOC(CN)C1 (centres unmarked),17
CC1CNC2=CC=CNC2=N1 (centres unmarked),9.689
Cc1noc(Cl)c1CC(=O)N1CCN(CC(C)O)CC1 (centres unmarked),8.983
Cc1ccc(Cl)cc1NC(=O)CN1CCN(C)CC1,-1.971
Cc1cc(C(=O)N2CCCC2C(=O)NC2CC2)no1 (centres unmarked),-10.38
CN(C(=O)Cc1ccncc1)C1CCOC(C)(C)C1 (centres unmarked),-14.49
CCn1cc(NC(=O)C(C)n2cccn2)cn1 (centres unmarked),-28.31
OC1CCOC2(CCOCC2)C1 (centres unmarked),3.658
NCc1ccc(-c2ccccc2)o1,2.032
CCc1cn[nH]c1C1CCNCC1,0.4946
COc1ncccc1C(=O)NCCN1CCC(C)CC1,-0.3248
O=C(NCCC1CCCCO1)NC1CC=CC1 (centres unmarked),-4.879
Cc1cccc(C(=O)N2CCCC(O)(CO)C2)n1 (centres unmarked),16.71
COc1ccc(C(=O)N2CCCO2)cc1OC,-7.304
c1cnn(-c2ccc(-c3nc4c([nH]3)CCNC4)cc2)c1,7.967
Cc1cc(C)cc(OCCNC(=O)CSCC(N)=O)c1,0.7492
CC(C)n1cc(CN)nn1,-16.26
COCC(C)NC(=O)CSc1nc(N)c2ccsc2n1 (centres unmarked),-16.09
CN(C)c1ncccc1NS(=O)(=O)CCC1CC1,-5.226
O=C(c1ccc(Br)cn1)N1CCC(n2ccnn2)CC1,0.6699
Cc1cc(C)c(CNC(=O)C2(C#N)CCCC2)c(=O)[nH]1,-11.06
O=C(CCNC(=O)c1ccco1)Nc1ccccn1,2.894
COc1cccc(F)c1N1CCNCC1,2.534
CC(=O)NCC1CNCCO1 (centres unmarked),-2.438
O=S(=O)(CCO)NCc1ccccc1,-7.058
O=C1[C@H]2CNC[C@H]2C(=O)N1Cc1ccccc1,-8.258
OC[C@H]1CCCN1c1cnc2ccccc2n1,0.8307
O=C(Cc1ccccc1)NCC(=O)Nc1nccs1,-11.97
C=C(C)CNC(C(=O)N1CCOCC1)C(C)C (centres unmarked),-2.491
Nc1ccnc(S(N)(=O)=O)c1,-1.082
CCCS(=O)(=O)Nc1cccc(OCC)n1,-0.3864
CSCC(=O)NCCc1nc(Cc2ccccc2)no1,-6.219
CNc1ncccc1C(=O)NCCS(=O)(=O)N(C)C,-2.364
CC(=O)c1ccc(S(=O)(=O)NCCN(C)C)cc1,-7.416
N[C@@H]1CCO[C@H]1c1ccnn1-c1ccccc1,-18.85
CCN(CC)C(=O)CCNc1ccncc1Cl,17.84
CC(CC(=O)NCCCS(N)(=O)=O)c1cccc(F)c1 (centres unmarked),3.903
c1cc(C2CNCCN2)ccn1 (centres unmarked),14.05
NC1CCOC2(CCCCC2)C1 (centres unmarked),-4.991
Cn1c(=O)c2c(nc(Cl)n2CCCC#N)n(C)c1=O,-14.03
CN(CCc1ccccn1)CC(=O)NCc1ccco1,-2.259
Cc1cc(S(=O)(=O)N(C)C)ccc1OCC(N)=O,7.842
Cn1nc2n(c1=O)CCN(S(C)(=O)=O)CC2,16.34
Cn1nc(CC#N)c2ccccc21,-11.92
CCO[C@@H]1COCC[C@H]1NC(=O)CCc1csc(N)n1,-11.27
c1snnc1CNCC1COC2(CCCCC2)O1 (centres unmarked),-11.37
CN(C)Cc1nnc(C2CCCCN2)o1 (centres unmarked),0.5676
C=C(Br)CN1CCN(CCNC(=O)C2CCC2)CC1,-27.84
Cn1c(C(=O)N2CCCC2CO)cc2ccccc21 (centres unmarked),-6.438
OCC1CN(Cc2ccc(Br)c3cccnc23)CCO1 (centres unmarked),0.8587
CN(C)c1ncc(CN2CCCCC2CO)cn1 (centres unmarked),19.9
COC(=O)c1sc(NC(=O)c2ccncc2)nc1C,-54.28
CCN1CCN(CCOc2ccc(C(C)=O)cc2)CC1,-3.81
CC(C)CN1CCOC(CNC(=O)c2cnccn2)C1 (centres unmarked),-11.74
CNC(=O)c1c(C)cccc1NCCCOC,-3.644
CNC(=O)c1ccc(C#N)cc1,1.519
Cc1cc(C(=O)NCCNc2ncccn2)on1,-4.907
CCNS(=O)(=O)CCNC(=O)Cc1cc(F)ccc1F,-0.9025
OC1(Cc2ccccn2)CCNCC1,-0.4203
O=C(NC1CC1)C1CCN(CC2CCC2)CC1,-0.7704

Repeated from the top, 8 entries:

- Cc1ccc(C)c(NC(=O)N[C@@H]2CNCC[C@H]2O)c1 | 15.81%
- Cc1cccc(NC(=O)N(C)CCn2cccn2)n1 | 3.403%
- CCOC(=O)c1cccnc1C | -5.475%
- Cc1ccc(CN(C)C(=O)c2cnn(C)c2)o1 | 2.457%
- CCCNC(=O)c1ccc2snnc2c1 | -4.923%
- CSc1ncc(C(=O)NCc2noc(C)n2)cn1 | -12.9%
- NC(=O)NC1CCN(C(=O)Cc2ccc(Br)cc2)CC1 | 0.433%
- CNC(=O)Nc1ccc2c(c1)C(=O)N(C)C2=O | -6.127%